Values of other authors in patent publication US20160051541A1 (CHANRX CORPORATION, priority 2013, published 2016).
At least one structure is not confirmed: it was looked up by name or label, or the drawing left a doubt.

Tested on: atrial fibrillation
Conditions: canines, clinically relevant conditions; cited from earlier work

In the case of `CCCNCC(O)COc1ccccc1C(=O)CCc1ccccc1` (stereo not shown) [propafenone], the anti-AF effect is given as “suppress atrial fibrillation”.
